For 65 molecules, AC50 results are on record in PubChem BioAssay AID493014 (National Center for Advancing Translational Sciences (NCATS), 2011).

Structures are written as SMILES. Some of the results follow. Shown are side measurements of this screen, not its main read-out; they come without a call. Most of these compounds were active or inconclusive in the main read-out, so they are no random draw. Words in brackets tell the shape of the fitted curve; partial curves, single points and poor fits give uncertain potencies.

A word on the AC50: it is the concentration at which the activity in the assay is half-maximal.

This test in a line: qHTS Assay to Find Inhibitors of Chronic Active B-Cell Receptor Signaling. The following applies: ABC-DLBCL IkBa-CBG/CBR reporter, luminescence ratio (green luciferase fused to IkBa over red control in TMD8 lymphoma cells), 4 h. Put shortly: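 Doxycycline induced both beetle luciferases in TMD8 lymphoma cells; IKK-driven degradation limits the IkappaBalpha-fused green signal, while red luminescence normalises for cell number and nonspecific effects. Compounds tested up to 46 uM, 4 hrs.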
On the technique in general: In qHTS, concentration-response curves come from the screen itself.

Where [1] appears, read: measured here: CBR red luminescence, cell number.
Where [2] appears, read: measured here: IkBa-CBG green luminescence.

Take `CCOC(=O)c1c2ccc(OCC(=O)N/N=C/c3ccc(C)cc3)cc2n2ccccc12`: the AC50 under setting [1] is 11.2 µM [rising, partial curve, poor fit].

Consider `CC(C)[C@H](NC(N)=O)C(=O)Nc1ccc(F)c(Cl)c1`, for which, under setting [1], the AC50 is 35.5 µM [rising, single point].

With `O=C(c1cc(-c2cccs2)on1)N1CCN(c2ccccc2)CC1`, the AC50 under setting [1] was 12.6 µM [falling, partial curve, poor fit].

For `CC(C)COc1cccc(C(=O)Nc2ccc(CN3CCOCC3)cc2)c1`, under setting [1], the concentration at half-maximal activity (AC50) is 12.6 µM [falling, partial curve].

As for `CCCCNC(=S)NNC(=O)c1c(Cl)c(C)nn1C`, under setting [1], the AC50 was 23.1 µM [rising, single point].

Take `O=C(Nc1cccc2ccccc12)c1ccc(OC(=S)N2CCOCC2)cc1`: under setting [1], the AC50 was 0.447 µM [falling, full curve].

With `O=C(/C=C/c1ccc2c(c1)OCCO2)c1ccc(O)cc1`, the AC50 under setting [1] is 12.6 µM [falling, partial curve].

`COc1ccc(CN(Cc2cccnc2)C(=S)NCCc2ccccc2)cc1OC`: under setting [1], the AC50 was 11.2 µM [falling, partial curve].

Regarding `CN(C)CCCN(Cc1cc2cc3c(cc2[nH]c1=O)OCO3)C(=S)NCc1ccco1`, under setting [1], the half-maximal activity concentration (AC50) is 7.94 µM [falling, partial curve, poor fit].

Consider `Cc1cccc(Oc2ccc(N)cc2)c1`, for which the AC50 under setting [1] is 6.51 µM [falling, single point].

With `Cc1ccsc1/C=N/Nc1ncnc2nc[nH]c12`, the AC50 under setting [1] was 6.31 µM [falling, full curve].

As for `Cc1cccc(NC(=O)c2ccoc2C)n1`, the AC50 under setting [1] was 6.51 µM [rising, partial curve, poor fit].

For the molecule `COc1ccc(Nc2ccc(Cl)cc2)c(C(=O)O)c1`, the AC50 under setting [1] was 18.4 µM [falling, single point].

On to `Cc1nnc(NC(=O)c2cc3ccccc3o2)s1`, for which the AC50 under setting [1] was 6.31 µM [falling, partial curve, poor fit].

As to `O=C(Nc1ccccc1)Nc1cccc2ccccc12`, under setting [1], the AC50 was 0.355 µM [falling, full curve, poor fit].

In the case of `C[N+]12CCC(CC1)C(OC(=O)C(O)(c1ccccc1)c1ccccc1)C2` (stereo not drawn), the AC50 under setting [1] is 3.98 µM [falling, single point].

On to `O=C(NCCC1=CCCCC1)NC12CC3CC(CC(C3)C1)C2`, for which the AC50 under setting [1] was 29.1 µM [rising, single point].

As to `COC(=O)C1=C(C(=O)c2ccccc2)C(c2ccc(O)c(OC)c2)n2nnnc2N1` (stereo not drawn), the AC50 under setting [1] is 0.82 µM [rising, full curve, poor fit].

With `N#Cc1nc(-c2ccco2)oc1NCCc1ccccc1`, the AC50 under setting [1] is 6.51 µM [rising, full curve].

On to `O=C(NCc1ccccc1F)Nc1ccc([N+](=O)[O-])cc1`, for which, under setting [1], the AC50 was 10 µM [falling, partial curve].

With `COc1ccc(C(=O)NCCCN2CCOCC2)cc1S(=O)(=O)N1CCCc2ccccc21`, the AC50 under setting [1] was 35.5 µM [rising, single point].

For `COc1ccc(-c2cc(-c3cc(OC)ccc3O)[nH]n2)cc1`, the AC50 under setting [1] was 8.2 µM [falling, partial curve, poor fit].

For the molecule `c1cncc(C2Nc3ccccc3-c3nc4ccccc4n32)c1` (stereo not drawn), under setting [1], the AC50 is 3.66 µM [falling, partial curve, poor fit].

Turning to `COC(=O)NNC(=S)Nc1cc(OC)ccc1OC`, under setting [1], the AC50 is 6.51 µM [falling, single point].

On to `CC(=O)c1c(C)[nH]c(C(=O)OCC(=O)Nc2cc(S(=O)(=O)N3CCCCC3)ccc2C)c1C`, for which the AC50 under setting [1] is 20.6 µM [falling, single point].

With `Fc1ccccc1C1c2cccn2CCN1C(=S)Nc1cccc(Br)c1` (stereo not drawn), under setting [1], the AC50 was 22.4 µM [falling, single point].

Take `COc1cccc(CNCc2ccc(OC)c3ccccc23)c1OC`: the AC50 under setting [1] is 35.5 µM [falling, single point].

For the molecule `NC(=O)C1CCN(C2=C(Cl)C(=O)c3ccccc3C2=O)CC1`, the AC50 under setting [1] was 12.6 µM [falling, partial curve, poor fit] and the AC50 under setting [2] was 15.8 µM [rising, partial curve, poor fit].

As to `COCCn1nnnc1C(C(C)C)N1CCCC(C)C1` (stereo not drawn), under setting [1], the AC50 is 12.6 µM [rising, partial curve, poor fit].

With `CC(Sc1cccc[n+]1[O-])c1ccccc1` (stereo not drawn), the AC50 is, setting by setting: under setting [1], 35.5 µM [falling, single point]; under setting [2], 31.6 µM [falling, single point].

For `O=C(O)c1ccccc1C(=O)NCC(O)c1ccccc1` (stereo not drawn), the AC50 under setting [1] is 3.16 µM [rising, full curve, poor fit].

`Cc1ccc(CSC2=Nc3ccccc3C3=NC(CCC(=O)NCc4cccs4)C(=O)N23)c(C)c1` (stereo not drawn): the AC50 under setting [1] is 3.16 µM [rising, single point].

As for `C=CCN1C(=O)[C@@H]2Cc3c([nH]c4ccccc34)C(c3ccc(O)cc3)N2C1=S` (stereo partly drawn), the AC50 under setting [1] was 12.6 µM [falling, single point].

As to `O=[N+]([O-])/C(C=Nc1ccccc1O)=C\Nc1ccccc1O`, the AC50 under setting [1] is 11.2 µM [falling, single point].

For the molecule `Oc1ccccc1-c1cc(C(F)(F)C(F)F)[nH]n1`, the AC50 under setting [1] was 18.4 µM [falling, single point].

`C/C(=N\NC(=O)COc1c(C)cccc1C)c1cccs1`: the AC50 under setting [1] is 6.31 µM [rising, full curve, poor fit].

In the case of `COc1ccc(C(=O)Cc2ccc(F)cc2)c(OC)c1`, under setting [1], the AC50 is 7.31 µM [rising, partial curve, poor fit].

With `CCC(C)NC(=O)c1ccc2c(c1)N(Cc1ccccc1)C(=O)CS2` (stereo not drawn), under setting [1], the AC50 was 35.5 µM [rising, single point].

For `CC(C)c1ccc(NC(=O)Cn2ncc3ccccc32)cc1`, the AC50 under setting [1] was 2.82 µM [rising, full curve].

`Cc1ccc(Nc2nc(CSc3nnc(-c4cccnc4)n3-c3ccccc3F)cs2)cc1`: the AC50 under setting [1] is 29.1 µM [falling, single point].

As for `CCC(=O)Nc1cccc(NC(=O)c2cc3ccccc3o2)c1`, the AC50 under setting [1] is 7.08 µM [falling, partial curve].

On to `CN(C)c1ccc(C(C[N+](=O)[O-])c2c(N)n(C)c(=O)n(C)c2=O)c(F)c1C#N` (stereo not drawn), for which the concentration at half-maximal activity (AC50) is, setting by setting: under setting [1], 6.31 µM [falling, full curve, poor fit]; under setting [2], 20 µM [falling, partial curve, poor fit].

In the case of `Cc1cc(NC(=O)CSc2nc3cc(Cl)ccc3s2)no1`, the concentration at half-maximal activity (AC50) under setting [1] is 20.6 µM [rising, partial curve, poor fit].

As for `Cc1ccc(-n2[nH]c(C)c(C=Nc3cc(C)ccn3)c2=O)cc1`, under setting [1], the AC50 was 11.6 µM [falling, partial curve, poor fit].

On to `CC[n+]1c(/C=C2\C=C(C)CC(C)C2)sc2ccccc21` (stereo not drawn), for which the AC50 under setting [1] is 20 µM [falling, single point].

Consider `O=c1c2c(-c3cccc([N+](=O)[O-])c3)ccnc2[nH]n1-c1ccccc1`, for which the AC50 under setting [1] was 2.51 µM [falling, full curve, poor fit].

Consider `O=C(CN(C(=O)CCC(=O)Nc1nccs1)c1ccccc1F)NCC1CCCO1` (stereo not drawn), for which the AC50 under setting [1] was 9.2 µM [falling, partial curve, poor fit].

In the case of `CCN1CCCC1CNC(=O)c1cc2ccc(OC)cc2[nH]1` (stereo not drawn), the AC50 under setting [1] was 5.62 µM [falling, single point].

As to `COc1ccc(C(=O)Nc2nc(C)c(C(=O)N(C)C)s2)cc1OC`, the AC50 under setting [1] is 0.0184 µM [rising, full curve, poor fit].

Take `CN1C(=O)C(CC(=O)Nc2ccc(Cl)cc2)N(Cc2ccco2)C1=S` (stereo not drawn): the AC50 under setting [2] was 22.4 µM [falling, single point].

As to `CCOc1ccc(N2CC(C(=O)NCCCc3ccccc3)CC2=O)cc1` (stereo not drawn), under setting [1], the AC50 is 29.1 µM [rising, single point].

Consider `COCCN(C(=O)CN1CCc2ccccc21)c1c(N)n(Cc2ccccc2)c(=O)[nH]c1=O`, for which the half-maximal activity concentration (AC50) under setting [1] is 29.1 µM [rising, single point].

`c1ccc(CCc2cc3ccccc3[nH]2)cc1`: the AC50 under setting [1] is 0.231 µM [rising, full curve, poor fit].

In the case of `CCC(=O)Nc1cccc(NC(=O)c2ccc3c(c2)OCCO3)c1`, the AC50 under setting [1] was 7.31 µM [falling, partial curve].

`O=C(Nc1ccc(Cl)c(Cl)c1)OCCNC(=O)c1ccncc1`: under setting [1], the AC50 was 0.112 µM [rising, full curve, poor fit].

Turning to `Cc1nc2scc(-c3ccc(C(C)(C)C)cc3)c2c(=O)n1N`, under setting [1], the AC50 was 35.5 µM [rising, single point].

Consider `CC(=O)Nc1ccc(S(=O)(=O)NCCC(=O)OCC(=O)c2cccc(Br)c2)cc1`, for which the AC50 under setting [1] was 29.1 µM [rising, single point].

Regarding `CC1(C)CC(=O)C2=C(C1)N=C1SCCC(=O)N1C2c1cccc([N+](=O)[O-])c1` (stereo not drawn), under setting [1], the AC50 was 22.4 µM [falling, single point].

`CCN(CC)C(=S)Nc1ccc(Cl)c(Cl)c1`: the AC50 under setting [1] was 8.2 µM [rising, partial curve, poor fit].

For the molecule `Cc1ccc2c(n1)sc1c(-c3ccccc3)c(C#N)c(N)nc12`, the AC50 under setting [1] was 0.112 µM [falling, full curve, poor fit].

For the molecule `Cn1cc(CC(=O)NCc2ccc(F)cc2)c2ccccc21`, the AC50 under setting [1] is 22.4 µM [rising, single point].

For the molecule `Cc1cccc2nc(=S)n(C(=O)c3ccco3)n12`, under setting [1], the AC50 was 0.206 µM [rising, partial curve, poor fit].

Consider `COc1ccc(OC)c(NC(=O)CSc2nnc(C3CCCCC3)o2)c1`, for which the AC50 under setting [1] was 17.8 µM [falling, partial curve, poor fit].

On to `COC(=O)c1ccc(OC)c(CSc2nnc(COc3ccc(Cl)cc3)o2)c1`, for which the AC50 under setting [1] is 0.82 µM [falling, partial curve, poor fit].

For the molecule `COc1cc(C(=O)Nc2ccc(C)cn2)ccc1OCC(=O)N1CCOCC1`, under setting [1], the AC50 was 6.51 µM [falling, partial curve, poor fit].
